Patent US20240400677A1
These are yes or no findings as the source states them, for the method shown. Some binding calls cover weakened binding; strength is not graded here.

By UniProt entry, the sequences of proteins in these tests, tags left out. Where a name states a change or a piece, a line headed by the entry shows the natural chain unless it says otherwise. Chains listed by the source or under a name are the forms on record and can include a tag or linker. Residues count along the entry.
UniProt Q9P1W8: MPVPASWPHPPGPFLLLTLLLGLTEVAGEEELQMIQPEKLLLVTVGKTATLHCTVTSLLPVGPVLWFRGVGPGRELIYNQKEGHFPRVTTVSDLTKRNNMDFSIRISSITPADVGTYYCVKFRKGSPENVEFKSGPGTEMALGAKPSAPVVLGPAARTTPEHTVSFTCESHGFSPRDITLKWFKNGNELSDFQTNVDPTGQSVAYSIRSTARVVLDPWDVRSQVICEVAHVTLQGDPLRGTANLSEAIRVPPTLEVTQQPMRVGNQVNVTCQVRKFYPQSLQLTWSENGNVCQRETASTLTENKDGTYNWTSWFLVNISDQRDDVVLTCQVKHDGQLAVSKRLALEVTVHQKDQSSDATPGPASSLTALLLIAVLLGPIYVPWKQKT
UniProt O00241, residues 30-371: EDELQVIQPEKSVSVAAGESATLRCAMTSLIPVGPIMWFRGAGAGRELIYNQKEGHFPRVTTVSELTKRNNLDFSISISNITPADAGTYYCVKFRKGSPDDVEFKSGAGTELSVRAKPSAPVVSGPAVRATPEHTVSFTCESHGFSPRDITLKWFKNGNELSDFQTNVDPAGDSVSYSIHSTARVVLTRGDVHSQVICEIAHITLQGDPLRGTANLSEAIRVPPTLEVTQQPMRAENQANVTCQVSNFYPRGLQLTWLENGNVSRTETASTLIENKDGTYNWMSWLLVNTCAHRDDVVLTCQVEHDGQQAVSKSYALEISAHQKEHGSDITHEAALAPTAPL
human SIRPα V2-His monomer protein (P78324, form named): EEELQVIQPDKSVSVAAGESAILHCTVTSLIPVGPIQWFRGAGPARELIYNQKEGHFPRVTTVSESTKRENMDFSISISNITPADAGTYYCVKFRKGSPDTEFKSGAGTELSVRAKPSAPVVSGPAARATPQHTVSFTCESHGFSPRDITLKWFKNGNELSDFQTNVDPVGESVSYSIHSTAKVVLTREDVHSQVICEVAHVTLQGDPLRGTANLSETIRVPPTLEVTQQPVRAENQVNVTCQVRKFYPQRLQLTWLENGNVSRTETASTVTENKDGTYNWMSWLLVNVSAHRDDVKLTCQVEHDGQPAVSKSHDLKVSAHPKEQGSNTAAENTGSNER

B1: Antibody 86 (antibody, V domains shown)
VH: EVQLLESGGGLVQPGGSLRLSCAASGFTLGSYWMHWVRQAPGKGLEWVSLISWDGGSTYYADSVKGRFTISRDNSKNTLYLQMNSLRAEDTAVYYCAKGPWVGYSGYDLNYYYYGMDVWGQGTTVTVSS
VL: DIQMTQSPSSLSASVGDRVTITCRASQDIRRALAWYQQKPGKAPKLLIYAASSLQSGVPSRFSGSGSGTDFTLTISSLQPEDFATYYCLQHNSYPPTFGQGTKLEIK
B2: Antibody 54 (antibody, V domains shown)
VH: QVQLVQSGAEVKKPGASVKVSCKASGYSFSDYYMHWVRQAPGQGLEWMGWMSPNSGNTGYAQKFQGRVTMTRDTSTSTVYMELSSLRSEDTAVYYCARQREEYGHYYYGMDVWGQGTMVTVSS
VL: EIVMTQSPATLSVSPGERATLSCRASQSLGSTYLAWYQQKPGQAPRLLIYGASTRATGIPARFSGSGSGTEFTLTISSLQSEDFAVYYCQQYYSSPPTFGQGTKVEIK
B3: Antibody 46 (scFv, V domains shown)
VH: QVQLVQSGAEVKKPGASVKVSCKASGYTFSSYAISWVRQAPGQGLEWMGWMDPNSGNTGYAQKFQGRVTMTRDTSTSTVYMELSSLRSEDTAVYYCARESSYYYDSSGYYPGWYFDLWGRGTLVTVSS
VL: DIQMTQSPSSLSASVGDRVTITCQASQDISNYLNWYQQKPGKAPKLLIYAASTLQTGVPSRFSGSGSGTDFTLTISSLQPEDFATYYCQQSYSTPWTFGPGTKVDIK
B4: Antibody 11 (scFv, V domains shown)
VH: QVQLVQSGAEVKKPGASVKVSCKASGYTFTSYDINWVRQAPGQGLEWMGWMNPNSGNTGYAQKFQGRVTMTRDTSTSTVYMELSSLRSEDTAVYYCAKGAVAGTYYYYGMDVWGQGTTVTVSS
VL: DIQMTQSPSSLSASVGDRVTITCRASQTINNYLNWYQQKPGKAPKLLIYDASNLETGVPSRFSGSGSGTDFTLTISSLQPEDFATYYCQQANSFPLTFGQGTKVEIK
B5: Antibody 14 (scFv, V domains shown)
VH: QVQLVQSGAEVKKPGASVKVSCKASGYTFTSYYMHWVRQAPGQGLEWMGWVDPNNGDTGYAQKFQGRVTMTRDTSTSTVYMELSSLRSEDTAVYYCARDNWGSLDVWGKGTTVTVSS
VL: DIVMTQSPLSLPVTPGEPASISCRSSQSLLHSNGYNYLDWYLQKPGQSPQLLIYAASTLQSGVPDRFSGSGSGTDFTLKISRVEAEDVGVYYCMQGLQTLYSFGQGTKLEIK

What was measured:
[1] = target: human SIRPγ on primary human T-cells (human) (UniProt Q9P1W8); assay: flow cytometry, human T-cells, 20 µg/mL
[2] = target: cynomolgus monkey SIRPγ on primary cynomolgus monkey T cells; assay: flow cytometry, naive and stimulated cynomolgus CD3+ T cells
[3] = target: human SIRPγ on primary human T-cells (human) (UniProt Q9P1W8); assay: flow cytometry, dye-conjugated antibody, human whole blood (3 donors)
[4] = target: cynomolgus monkey SIRPγ on CHO cells (cynomolgus monkey); assay: flow cytometry, CHO transfectants, anti-human IgG
[5] = target: human SIRPγ on stably transfected CHO cells (human) (UniProt Q9P1W8); assay: flow cytometry, CHO transfectants, anti-human IgG
[6] = target: extracellular binding domain of human SIRPγ (plate-coated) (human) (UniProt Q9P1W8); assay: competition ELISA, coated SIRPγ ECD, antibody 1 h then 10 µg/mL biotinylated CD47-Fc (blocked ligand), streptavidin-HRP
[7] = target: extracellular binding domain of human SIRPγ (plate-coated) (human) (UniProt Q9P1W8); assay: ELISA, coated SIRP ECD (2 µg/mL), anti-human IgG, luminescence
[8] = target: Cynomolgus Monkey SIRPγ (plate-coated extracellular domain); assay: as above
[9] = target: human SIRPβ1-His monomer protein (human) (UniProt O00241); assay: BLI
[10] = target: human SIRPα V2-His monomer protein (human) (UniProt P78324); assay: BLI
[11] = target: cynomolgus monkey SIRPα-His monomer protein (cynomolgus monkey); assay: BLI Octet, captured scFv PPE, cyno SIRP

Row | Binder | binding [9] | binding [10] | binding [11] | other results
1 | B1 | – | – | – | binding [1]: binds; binding [2]: binds; binding [3]: binds
2 | B2 | – | – | – | binding [4]: binds; binding [5]: binds; binding [6]: binds; binding [7]: binds; binding [8]: binds
3 | B3 | no binding (tested: <0.02 nm at 115 s; 500 nM) | no binding (tested: <0.02 nm at 115 s; 500 nM) | binds | –
4 | B4 | no binding (tested: <0.02 nm at 115 s; 500 nM) | no binding (tested: <0.02 nm at 115 s; 500 nM) | binds | –
5 | B5 | no binding (tested: <0.02 nm at 115 s; 500 nM) | no binding (tested: <0.02 nm at 115 s; 500 nM) | binds | –
